Results on two molecules are retold here after article PMC7809827.

Chains of the proteins cited; added tags and fusions are not shown.
UniProt P09382: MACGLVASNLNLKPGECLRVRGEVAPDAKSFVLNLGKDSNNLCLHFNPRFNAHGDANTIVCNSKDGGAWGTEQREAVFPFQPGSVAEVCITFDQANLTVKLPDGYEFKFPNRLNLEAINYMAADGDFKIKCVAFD

No constants are given. Whether binding was seen depends on the method and setting. Binding seen in cells or lysates may run through a third protein. Some binding calls cover weakened binding; strength is not graded here.

The target of the assay is T1, zinc finger protein 804A (ZNF804A) (human) (UniProt Q7Z570).
T1 sequence: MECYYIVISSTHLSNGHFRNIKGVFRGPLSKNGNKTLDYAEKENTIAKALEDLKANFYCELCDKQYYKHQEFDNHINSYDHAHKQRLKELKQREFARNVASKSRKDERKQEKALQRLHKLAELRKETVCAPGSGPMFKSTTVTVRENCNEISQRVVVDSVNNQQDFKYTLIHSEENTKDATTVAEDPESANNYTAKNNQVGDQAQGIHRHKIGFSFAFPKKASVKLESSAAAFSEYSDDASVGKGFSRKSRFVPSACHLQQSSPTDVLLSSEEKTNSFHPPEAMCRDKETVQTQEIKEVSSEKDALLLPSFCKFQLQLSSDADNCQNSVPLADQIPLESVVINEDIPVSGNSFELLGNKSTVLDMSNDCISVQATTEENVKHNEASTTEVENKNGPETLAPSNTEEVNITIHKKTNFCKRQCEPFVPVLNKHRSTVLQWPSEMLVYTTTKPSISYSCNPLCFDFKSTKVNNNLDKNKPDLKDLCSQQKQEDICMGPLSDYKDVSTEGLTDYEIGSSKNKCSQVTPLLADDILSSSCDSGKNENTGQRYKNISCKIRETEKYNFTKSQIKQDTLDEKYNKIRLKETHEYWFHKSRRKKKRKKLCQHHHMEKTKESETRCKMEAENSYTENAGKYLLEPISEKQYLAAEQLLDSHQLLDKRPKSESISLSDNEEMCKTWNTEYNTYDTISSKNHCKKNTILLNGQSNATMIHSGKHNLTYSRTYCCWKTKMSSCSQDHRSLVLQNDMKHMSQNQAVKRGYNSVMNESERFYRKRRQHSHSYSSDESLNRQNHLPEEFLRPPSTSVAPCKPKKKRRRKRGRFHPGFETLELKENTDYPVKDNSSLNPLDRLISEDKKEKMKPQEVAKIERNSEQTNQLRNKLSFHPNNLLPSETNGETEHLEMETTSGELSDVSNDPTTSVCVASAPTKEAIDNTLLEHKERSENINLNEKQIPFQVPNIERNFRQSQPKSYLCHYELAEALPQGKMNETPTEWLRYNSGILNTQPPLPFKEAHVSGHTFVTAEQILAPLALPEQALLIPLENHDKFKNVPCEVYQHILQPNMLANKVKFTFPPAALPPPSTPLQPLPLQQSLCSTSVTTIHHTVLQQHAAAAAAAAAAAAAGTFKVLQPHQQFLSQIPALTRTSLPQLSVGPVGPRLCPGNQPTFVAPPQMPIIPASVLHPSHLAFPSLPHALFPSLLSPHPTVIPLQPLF
The experiment in a line: co-IP; co-immunoprecipitation (Fig. 2a); cells, antibodies and conditions not told in the text shown.

As for “galectin 1 (LGALS1) (from UniProt P09382 1-135)”, the binding entry is “binds”.

B1: fasciculation and elongation protein zeta 1 (FEZ1) (protein, UniProt Q99689 1-392)
chain: MEAPLVSLDEEFEDLRPSCSEDPEEKPQCFYGSSPHHLEDPSLSELENFSSEIISFKSMEDLVNEFDEKLNVCFRNYNAKTENLAPVKNQLQIQEEEETLQDEEVWDALTDNYIPSLSEDWRDPNIEALNGNCSDTEIHEKEEEEFNEKSENDSGINEEPLLTADQVIEEIEEMMQNSPDPEEEEEVLEEEDGGETSSQADSVLLQEMQALTQTFNNNWSYEGLRHMSGSELTELLDQVEGAIRDFSEELVQQLARRDELEFEKEVKNSFITVLIEVQNKQKEQRELMKKRRKEKGLSLQSSRIEKGNQMPLKRFSMEGISNILQSGIRQTFGSSGTDKQYLNTVIPYEKKASPPSVEDLQMLTNILFAMKEDNEKVPTLLTDYILKVLCPT
Take B1: the binding result is recorded as “binds”.
